Experimental findings from the supplement of paper PMC6411743 are described below.

Protein sequences, listed by entry. Tags and fused reporters are not part of them. Lines headed by an entry give the natural chain unless they say otherwise; changes in a name come on top.
UniProt Q8IY57: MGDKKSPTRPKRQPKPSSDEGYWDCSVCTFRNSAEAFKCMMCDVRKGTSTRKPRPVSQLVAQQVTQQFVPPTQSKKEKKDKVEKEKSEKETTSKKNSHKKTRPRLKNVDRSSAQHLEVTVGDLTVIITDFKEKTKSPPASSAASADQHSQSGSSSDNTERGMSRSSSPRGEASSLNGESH
UniProt Q8N4N3: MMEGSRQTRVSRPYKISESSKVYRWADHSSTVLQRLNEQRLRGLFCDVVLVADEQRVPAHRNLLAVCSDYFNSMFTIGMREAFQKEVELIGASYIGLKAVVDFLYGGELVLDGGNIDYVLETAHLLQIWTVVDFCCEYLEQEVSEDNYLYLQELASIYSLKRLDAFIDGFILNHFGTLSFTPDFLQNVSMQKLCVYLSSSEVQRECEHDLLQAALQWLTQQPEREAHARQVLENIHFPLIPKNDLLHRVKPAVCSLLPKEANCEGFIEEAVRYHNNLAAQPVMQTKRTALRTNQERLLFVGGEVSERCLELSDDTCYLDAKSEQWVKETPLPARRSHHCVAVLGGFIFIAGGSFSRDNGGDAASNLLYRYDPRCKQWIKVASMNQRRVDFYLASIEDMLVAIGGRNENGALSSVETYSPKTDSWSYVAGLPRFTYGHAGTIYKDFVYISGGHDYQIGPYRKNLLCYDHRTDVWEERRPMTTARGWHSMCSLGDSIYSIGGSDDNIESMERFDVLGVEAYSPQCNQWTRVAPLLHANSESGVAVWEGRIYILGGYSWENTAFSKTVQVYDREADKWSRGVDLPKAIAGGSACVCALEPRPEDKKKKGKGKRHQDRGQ
UniProt Q8IYR2: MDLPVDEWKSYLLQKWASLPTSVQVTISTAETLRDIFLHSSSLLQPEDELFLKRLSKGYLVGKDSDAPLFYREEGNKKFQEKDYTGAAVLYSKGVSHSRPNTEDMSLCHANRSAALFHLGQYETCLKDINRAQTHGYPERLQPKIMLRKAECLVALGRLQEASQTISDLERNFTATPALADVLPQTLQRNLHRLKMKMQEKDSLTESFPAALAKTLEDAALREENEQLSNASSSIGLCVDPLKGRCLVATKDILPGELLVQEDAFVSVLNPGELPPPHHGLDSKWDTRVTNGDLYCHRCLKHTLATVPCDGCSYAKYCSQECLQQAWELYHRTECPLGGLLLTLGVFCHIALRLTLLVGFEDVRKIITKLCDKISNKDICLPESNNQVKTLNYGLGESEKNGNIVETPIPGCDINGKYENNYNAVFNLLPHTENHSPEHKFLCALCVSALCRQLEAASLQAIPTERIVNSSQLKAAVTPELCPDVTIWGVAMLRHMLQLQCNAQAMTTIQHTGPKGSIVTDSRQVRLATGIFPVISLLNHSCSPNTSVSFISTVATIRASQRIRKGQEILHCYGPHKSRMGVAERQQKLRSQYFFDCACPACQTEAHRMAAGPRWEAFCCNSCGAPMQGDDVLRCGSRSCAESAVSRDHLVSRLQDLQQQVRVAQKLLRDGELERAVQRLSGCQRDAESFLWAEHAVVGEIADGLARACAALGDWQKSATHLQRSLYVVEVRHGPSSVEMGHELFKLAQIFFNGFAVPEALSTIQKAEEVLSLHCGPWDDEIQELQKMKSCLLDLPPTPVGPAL
UniProt Q8IZ40: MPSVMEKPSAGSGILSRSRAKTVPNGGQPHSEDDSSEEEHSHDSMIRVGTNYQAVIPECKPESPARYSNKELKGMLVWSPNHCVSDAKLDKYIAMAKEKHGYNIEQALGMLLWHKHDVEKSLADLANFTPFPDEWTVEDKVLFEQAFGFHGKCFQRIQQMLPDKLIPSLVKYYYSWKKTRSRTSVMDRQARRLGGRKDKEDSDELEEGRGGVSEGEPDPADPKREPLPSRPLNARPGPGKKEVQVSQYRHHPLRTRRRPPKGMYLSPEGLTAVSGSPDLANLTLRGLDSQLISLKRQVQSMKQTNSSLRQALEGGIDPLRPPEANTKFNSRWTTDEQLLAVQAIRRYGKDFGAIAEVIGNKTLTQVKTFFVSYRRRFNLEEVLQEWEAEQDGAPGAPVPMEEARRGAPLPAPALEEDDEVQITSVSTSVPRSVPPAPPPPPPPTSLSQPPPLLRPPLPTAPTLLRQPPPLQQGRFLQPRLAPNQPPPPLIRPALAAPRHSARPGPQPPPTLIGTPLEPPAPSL
UniProt Q8IWY9: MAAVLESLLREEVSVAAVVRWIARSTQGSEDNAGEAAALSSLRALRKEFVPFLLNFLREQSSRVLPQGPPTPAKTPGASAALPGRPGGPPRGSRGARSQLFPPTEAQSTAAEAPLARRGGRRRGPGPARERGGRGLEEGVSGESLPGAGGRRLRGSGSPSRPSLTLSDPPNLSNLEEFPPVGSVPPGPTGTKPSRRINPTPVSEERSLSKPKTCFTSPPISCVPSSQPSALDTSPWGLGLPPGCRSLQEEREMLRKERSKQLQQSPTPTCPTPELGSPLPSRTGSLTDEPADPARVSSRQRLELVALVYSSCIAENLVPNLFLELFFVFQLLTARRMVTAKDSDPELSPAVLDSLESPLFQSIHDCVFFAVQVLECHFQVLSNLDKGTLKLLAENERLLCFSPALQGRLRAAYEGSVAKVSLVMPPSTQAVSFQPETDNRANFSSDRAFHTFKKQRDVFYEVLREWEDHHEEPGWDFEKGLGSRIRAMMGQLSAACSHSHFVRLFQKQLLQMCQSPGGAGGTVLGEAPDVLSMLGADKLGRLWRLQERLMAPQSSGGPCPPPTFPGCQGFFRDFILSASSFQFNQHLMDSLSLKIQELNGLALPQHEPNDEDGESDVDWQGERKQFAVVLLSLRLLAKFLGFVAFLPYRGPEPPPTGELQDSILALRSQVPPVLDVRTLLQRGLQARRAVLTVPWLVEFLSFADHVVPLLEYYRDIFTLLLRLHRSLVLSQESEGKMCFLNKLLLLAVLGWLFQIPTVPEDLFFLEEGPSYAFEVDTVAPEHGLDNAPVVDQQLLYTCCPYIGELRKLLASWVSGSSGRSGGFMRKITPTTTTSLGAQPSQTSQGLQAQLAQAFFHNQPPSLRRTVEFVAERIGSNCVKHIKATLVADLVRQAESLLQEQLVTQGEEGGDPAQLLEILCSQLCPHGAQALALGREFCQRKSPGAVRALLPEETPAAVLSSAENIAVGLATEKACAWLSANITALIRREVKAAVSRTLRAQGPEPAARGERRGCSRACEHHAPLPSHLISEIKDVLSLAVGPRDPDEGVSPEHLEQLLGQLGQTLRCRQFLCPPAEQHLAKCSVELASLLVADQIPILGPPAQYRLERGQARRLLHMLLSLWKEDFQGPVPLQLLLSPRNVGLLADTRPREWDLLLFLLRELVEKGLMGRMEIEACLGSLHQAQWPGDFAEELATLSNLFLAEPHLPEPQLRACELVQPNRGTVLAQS
UniProt Q8IYB8: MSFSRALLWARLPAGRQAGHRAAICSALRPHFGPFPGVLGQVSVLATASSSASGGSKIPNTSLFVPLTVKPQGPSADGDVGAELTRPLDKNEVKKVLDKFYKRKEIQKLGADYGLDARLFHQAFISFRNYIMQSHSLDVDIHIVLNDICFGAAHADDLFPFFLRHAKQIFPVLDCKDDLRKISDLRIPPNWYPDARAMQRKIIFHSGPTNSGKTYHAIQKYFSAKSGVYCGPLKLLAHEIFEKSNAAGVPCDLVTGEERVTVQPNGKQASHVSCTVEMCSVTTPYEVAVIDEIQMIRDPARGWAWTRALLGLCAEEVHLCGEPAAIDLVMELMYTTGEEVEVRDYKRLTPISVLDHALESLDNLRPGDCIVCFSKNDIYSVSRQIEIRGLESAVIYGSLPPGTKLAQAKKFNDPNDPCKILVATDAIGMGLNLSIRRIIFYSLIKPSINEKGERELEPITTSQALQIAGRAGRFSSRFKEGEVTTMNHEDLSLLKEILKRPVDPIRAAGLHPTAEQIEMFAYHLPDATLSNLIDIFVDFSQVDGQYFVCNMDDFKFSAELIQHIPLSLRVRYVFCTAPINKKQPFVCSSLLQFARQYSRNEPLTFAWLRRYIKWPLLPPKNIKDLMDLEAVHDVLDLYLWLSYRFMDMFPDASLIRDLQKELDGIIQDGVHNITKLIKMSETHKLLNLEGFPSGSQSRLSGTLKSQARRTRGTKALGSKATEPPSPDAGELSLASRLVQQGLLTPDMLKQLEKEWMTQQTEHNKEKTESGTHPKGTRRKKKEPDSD
UniProt Q8ND24: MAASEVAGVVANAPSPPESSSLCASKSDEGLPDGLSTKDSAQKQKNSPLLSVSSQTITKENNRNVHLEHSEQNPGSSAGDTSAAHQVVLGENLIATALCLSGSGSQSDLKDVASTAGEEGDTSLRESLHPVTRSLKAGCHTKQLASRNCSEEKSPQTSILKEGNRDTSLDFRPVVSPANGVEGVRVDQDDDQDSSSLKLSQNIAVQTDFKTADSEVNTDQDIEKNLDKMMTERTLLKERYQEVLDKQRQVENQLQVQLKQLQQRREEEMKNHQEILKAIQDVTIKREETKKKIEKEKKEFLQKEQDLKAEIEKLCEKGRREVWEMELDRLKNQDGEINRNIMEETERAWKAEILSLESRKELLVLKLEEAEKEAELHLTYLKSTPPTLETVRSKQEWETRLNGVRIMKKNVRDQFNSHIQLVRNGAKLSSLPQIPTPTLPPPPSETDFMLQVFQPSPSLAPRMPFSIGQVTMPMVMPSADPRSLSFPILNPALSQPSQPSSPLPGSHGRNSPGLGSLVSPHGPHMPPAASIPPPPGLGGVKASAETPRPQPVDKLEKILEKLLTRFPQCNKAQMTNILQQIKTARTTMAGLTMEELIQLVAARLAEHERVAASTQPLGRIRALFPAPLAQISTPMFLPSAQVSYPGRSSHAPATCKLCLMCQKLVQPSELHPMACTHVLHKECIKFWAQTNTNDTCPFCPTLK
UniProt Q96JN0: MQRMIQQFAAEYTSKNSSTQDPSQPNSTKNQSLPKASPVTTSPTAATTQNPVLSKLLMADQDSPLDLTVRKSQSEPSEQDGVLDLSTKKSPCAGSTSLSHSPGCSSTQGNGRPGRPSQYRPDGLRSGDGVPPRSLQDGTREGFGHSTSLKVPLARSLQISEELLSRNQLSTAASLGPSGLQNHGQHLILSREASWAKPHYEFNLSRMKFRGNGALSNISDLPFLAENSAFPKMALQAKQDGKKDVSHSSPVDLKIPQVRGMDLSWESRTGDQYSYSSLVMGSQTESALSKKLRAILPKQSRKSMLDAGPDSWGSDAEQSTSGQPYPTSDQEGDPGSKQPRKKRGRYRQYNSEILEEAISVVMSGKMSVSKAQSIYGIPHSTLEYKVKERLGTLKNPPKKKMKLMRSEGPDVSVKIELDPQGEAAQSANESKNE
UniProt Q8TB61: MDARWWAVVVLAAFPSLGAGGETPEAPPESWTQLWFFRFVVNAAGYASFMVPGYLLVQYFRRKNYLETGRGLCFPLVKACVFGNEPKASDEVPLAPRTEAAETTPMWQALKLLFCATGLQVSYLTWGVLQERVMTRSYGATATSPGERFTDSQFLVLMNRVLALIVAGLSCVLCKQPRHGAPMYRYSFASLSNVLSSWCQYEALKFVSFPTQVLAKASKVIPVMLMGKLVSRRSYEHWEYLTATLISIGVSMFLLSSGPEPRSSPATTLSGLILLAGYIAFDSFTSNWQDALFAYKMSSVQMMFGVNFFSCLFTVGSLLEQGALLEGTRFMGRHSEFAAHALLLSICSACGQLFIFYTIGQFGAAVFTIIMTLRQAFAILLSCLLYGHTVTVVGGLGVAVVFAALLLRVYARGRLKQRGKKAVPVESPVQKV
UniProt Q8N129: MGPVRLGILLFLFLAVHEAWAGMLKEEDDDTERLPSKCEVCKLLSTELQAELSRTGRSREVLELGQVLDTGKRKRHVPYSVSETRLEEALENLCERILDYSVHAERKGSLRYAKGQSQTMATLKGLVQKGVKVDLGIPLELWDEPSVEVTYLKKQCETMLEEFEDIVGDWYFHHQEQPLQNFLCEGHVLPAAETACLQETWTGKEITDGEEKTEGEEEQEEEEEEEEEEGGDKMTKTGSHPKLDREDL
UniProt Q8IVW6: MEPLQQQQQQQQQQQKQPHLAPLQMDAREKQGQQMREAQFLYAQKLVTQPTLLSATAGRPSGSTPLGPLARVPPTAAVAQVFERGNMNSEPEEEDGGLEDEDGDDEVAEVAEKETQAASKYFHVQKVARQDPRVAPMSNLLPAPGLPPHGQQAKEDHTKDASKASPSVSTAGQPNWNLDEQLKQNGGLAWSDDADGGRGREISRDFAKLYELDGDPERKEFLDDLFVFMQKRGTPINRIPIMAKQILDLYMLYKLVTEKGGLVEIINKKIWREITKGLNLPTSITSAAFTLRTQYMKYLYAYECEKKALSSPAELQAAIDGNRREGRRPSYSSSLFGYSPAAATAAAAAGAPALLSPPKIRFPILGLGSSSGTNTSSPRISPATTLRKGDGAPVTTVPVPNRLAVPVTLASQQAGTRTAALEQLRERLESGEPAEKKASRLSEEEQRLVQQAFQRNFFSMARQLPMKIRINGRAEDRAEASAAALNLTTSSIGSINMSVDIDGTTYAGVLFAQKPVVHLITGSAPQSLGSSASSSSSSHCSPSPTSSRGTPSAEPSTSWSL

± gives the standard deviation of the averaged measurements. The list shows a part of the results, in another mix than the full data. Most entries show no effect beyond the scatter of the controls.

Compound in the assay: Nc1ncnc2c1ncn2[C@@H]1O[C@H](COP(=O)(O)OP(=O)(O)OP(=O)(O)O)[C@@H](O)[C@H]1O [adenosine triphosphate]
The experiment in a line: NP40-soluble protein abundance relative to vehicle (solubility fold change) (ratio); higher = more soluble protein in presence of ATP. The procedure, abridged: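 Crude Jurkat lysate, prepared by Dounce homogenisation, was exposed to eight concentrations from 0.1 to 10 mM for 10 min at room temperature and then 3 min at 37 °C. Solubilisation used 0.8% NP40 with benzonase for 60 min at 4 °C, followed by ultracentrifugation and TMT labelling of the supernatant for LC-MS/MS. After vsn normalisation of intensities, each value is the fold change against the detergent-processed vehicle within each replicate, across three independent experiments.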

EHBP1L1 (UniProt Q8N3D4): the NP40-soluble protein abundance is, setting by setting: (concentration: 0.1mM) 1 ± 0.066; (concentration: 0.5mM) 0.965 ± 0.038.
With LEMD2 (UniProt Q8NC56), the NP40-soluble protein abundance is, setting by setting: (concentration: 0.1mM) 1.08 ± 0.051; (concentration: 0.5mM) 1.37 ± 0.054.
Taken in the same sequence, the figures for UniProt Q8IY57 and related entries were 1.07 ± 0.12 and 0.917 ± 0.015.
For KLHL36 (UniProt Q8N4N3), in that order: 0.98 ± 0.065 and 0.944 ± 0.055.
For PPTC7 (UniProt Q8NI37), the NP40-soluble protein abundance is, setting by setting: (concentration: 0.1mM) 0.985 ± 0.04; (concentration: 0.5mM) 0.979 ± 0.18.
For SMYD4 (UniProt Q8IYR2), in that order: 1.03 ± 0.012 and 1.07 ± 0.064.
As to RCOR2 (UniProt Q8IZ40), the NP40-soluble protein abundance came to 0.9791 ± 0.0094 (concentration: 0.1mM) and 0.994 ± 0.041 (concentration: 0.5mM).
For UniProt Q8IWY9 and related entries, in that order: 1.01 ± 0.04 and 0.9767 ± 0.0096.
For UniProt Q8NB15-2, in that order: 1.07 ± 0.043 and 1.02 ± 0.034.
For UniProt Q8NHH9 and related entries, in that order: 1.12 ± 0.039 and 1.05 ± 0.044.
Turning to RP9 (UniProt Q8TA86), the NP40-soluble protein abundance (concentration: 0.1mM) is 0.951 ± 0.071 and the NP40-soluble protein abundance (concentration: 0.5mM) was determined as 0.929 ± 0.13.
Taken in the same sequence, the figures for SUPV3L1 (UniProt Q8IYB8) were 1.06 ± 0.056 and 1.05 ± 0.044.
For RNF214 (UniProt Q8ND24), in that order: 0.984 ± 0.016 and 0.988 ± 0.054.
For UniProt Q8NEY8 and related entries, in that order: 0.97 ± 0.12 and 0.968 ± 0.055.
For the target UniProt Q8N8J7, the NP40-soluble protein abundance by setting is: (concentration: 0.1mM) 0.968 ± 0.063; (concentration: 0.5mM) 0.854 ± 0.16.
For Q8N655 (UniProt Q96JN0), in that order: 0.908 ± 0.076 and 1.06 ± 0.089.
For UniProt Q8TB61 and related entries, in that order: 0.998 ± 0.036 and 0.966 ± 0.12.
Turning to WDR48 (UniProt Q8TAF3), the NP40-soluble protein abundance is, setting by setting: (concentration: 0.1mM) 1.05 ± 0.054; (concentration: 0.5mM) 1.04 ± 0.026.
On to CNPY4 (UniProt Q8N129), for which the NP40-soluble protein abundance by setting is: (concentration: 0.1mM) 1.03 ± 0.073; (concentration: 0.5mM) 0.929 ± 0.14.
As to UniProt Q8IVW6 and related entries, the NP40-soluble protein abundance is, setting by setting: (concentration: 0.1mM) 1.04 ± 0.054; (concentration: 0.5mM) 0.976 ± 0.04.
Taken in the same sequence, the figures for MLKL (UniProt Q8NB16) were 1.04 ± 0.097 and 1.01 ± 0.034.
For UniProt Q8NA72 and related entries, in that order: 0.986 ± 0.2 and 1.01 ± 0.082.
